These are yes or no findings as the source states them, for the method shown. Binding seen in cells or lysates may run through a third protein. Some results given as binding are weak or reduced against the parent protein; the word gives no strength.
Target: HA-tagged GATA3 (human) (UniProt P23771)
Assay: co-IP; HA-tagged TF expressed in wild-type and in SMARCA4/SMARCA2 dual-deficient HEK-293T cells; nuclear extract; immunoblot

By UniProt entry, the sequences of proteins in these tests, tags left out.
UniProt P23771: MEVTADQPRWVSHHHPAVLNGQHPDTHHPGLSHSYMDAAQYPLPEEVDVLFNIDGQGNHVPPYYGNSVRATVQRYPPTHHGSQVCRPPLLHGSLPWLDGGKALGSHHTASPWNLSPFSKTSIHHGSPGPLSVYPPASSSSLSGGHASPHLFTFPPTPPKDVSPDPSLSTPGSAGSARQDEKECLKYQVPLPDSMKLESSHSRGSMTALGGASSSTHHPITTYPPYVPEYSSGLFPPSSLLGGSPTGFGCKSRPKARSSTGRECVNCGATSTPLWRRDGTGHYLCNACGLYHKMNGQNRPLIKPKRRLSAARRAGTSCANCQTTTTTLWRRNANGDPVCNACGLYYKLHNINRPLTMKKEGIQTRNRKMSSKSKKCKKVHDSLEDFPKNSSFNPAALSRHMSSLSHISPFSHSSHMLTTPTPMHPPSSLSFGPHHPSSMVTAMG

SMARCC1 (from UniProt Q92922 1-1105)
binding: binds

SMARCD1 (from UniProt Q96GM5 1-515)
binding: binds

From publication doi:10.1101/2025.08.01.667725
